Experimental data taken from the supplement of paper PMC12819154, “High-throughput peptide-centric local stability assay extends protein–ligand identification to membrane proteins, tissues and bacteria” (Nature Structural & Molecular Biology, 2025).
The other results are listed elsewhere or left out. Most entries show no effect beyond the scatter of the controls.

Amino acid sequences for entries named in this document (tags omitted). A change or cut given only in a name is not applied to a line headed by its entry.
UniProt P43360, whole entry: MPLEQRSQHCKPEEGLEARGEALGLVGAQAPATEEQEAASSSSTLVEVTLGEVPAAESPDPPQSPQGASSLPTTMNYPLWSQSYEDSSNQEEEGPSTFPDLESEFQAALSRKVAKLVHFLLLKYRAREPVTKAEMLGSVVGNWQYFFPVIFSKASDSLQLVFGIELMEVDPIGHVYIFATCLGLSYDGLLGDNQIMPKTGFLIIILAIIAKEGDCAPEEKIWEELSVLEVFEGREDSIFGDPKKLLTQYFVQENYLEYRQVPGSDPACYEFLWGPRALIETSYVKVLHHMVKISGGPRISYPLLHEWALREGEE
UniProt P42898: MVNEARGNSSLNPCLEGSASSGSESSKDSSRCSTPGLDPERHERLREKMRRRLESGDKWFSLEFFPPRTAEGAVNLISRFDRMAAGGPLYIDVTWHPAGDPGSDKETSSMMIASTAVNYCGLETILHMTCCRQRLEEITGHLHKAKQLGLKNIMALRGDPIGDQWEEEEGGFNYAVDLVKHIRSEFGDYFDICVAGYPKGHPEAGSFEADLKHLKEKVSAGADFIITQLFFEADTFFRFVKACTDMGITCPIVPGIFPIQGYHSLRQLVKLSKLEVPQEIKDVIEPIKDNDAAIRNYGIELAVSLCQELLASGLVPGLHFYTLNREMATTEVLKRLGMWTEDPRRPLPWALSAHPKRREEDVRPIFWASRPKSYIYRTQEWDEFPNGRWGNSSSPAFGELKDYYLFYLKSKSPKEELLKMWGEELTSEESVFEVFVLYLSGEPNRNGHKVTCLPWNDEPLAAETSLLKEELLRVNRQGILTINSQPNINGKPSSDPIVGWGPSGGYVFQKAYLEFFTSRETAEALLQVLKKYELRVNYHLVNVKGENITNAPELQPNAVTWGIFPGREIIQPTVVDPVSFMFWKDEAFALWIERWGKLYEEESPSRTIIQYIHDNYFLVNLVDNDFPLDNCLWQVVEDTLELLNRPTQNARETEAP
UniProt P41161: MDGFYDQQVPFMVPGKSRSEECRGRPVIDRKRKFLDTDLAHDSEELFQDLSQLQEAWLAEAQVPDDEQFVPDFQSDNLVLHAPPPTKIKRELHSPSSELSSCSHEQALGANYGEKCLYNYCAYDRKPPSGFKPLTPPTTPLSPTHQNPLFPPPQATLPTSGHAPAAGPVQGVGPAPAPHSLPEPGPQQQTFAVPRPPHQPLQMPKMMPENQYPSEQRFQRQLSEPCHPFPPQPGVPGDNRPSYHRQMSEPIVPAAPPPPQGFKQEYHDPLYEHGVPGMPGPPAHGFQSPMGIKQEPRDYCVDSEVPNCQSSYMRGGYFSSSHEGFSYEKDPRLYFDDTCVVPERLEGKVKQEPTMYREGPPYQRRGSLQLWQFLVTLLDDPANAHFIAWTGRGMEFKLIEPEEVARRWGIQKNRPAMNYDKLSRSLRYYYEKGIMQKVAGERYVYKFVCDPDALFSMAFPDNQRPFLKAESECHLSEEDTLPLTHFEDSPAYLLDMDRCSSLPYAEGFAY
UniProt P43268: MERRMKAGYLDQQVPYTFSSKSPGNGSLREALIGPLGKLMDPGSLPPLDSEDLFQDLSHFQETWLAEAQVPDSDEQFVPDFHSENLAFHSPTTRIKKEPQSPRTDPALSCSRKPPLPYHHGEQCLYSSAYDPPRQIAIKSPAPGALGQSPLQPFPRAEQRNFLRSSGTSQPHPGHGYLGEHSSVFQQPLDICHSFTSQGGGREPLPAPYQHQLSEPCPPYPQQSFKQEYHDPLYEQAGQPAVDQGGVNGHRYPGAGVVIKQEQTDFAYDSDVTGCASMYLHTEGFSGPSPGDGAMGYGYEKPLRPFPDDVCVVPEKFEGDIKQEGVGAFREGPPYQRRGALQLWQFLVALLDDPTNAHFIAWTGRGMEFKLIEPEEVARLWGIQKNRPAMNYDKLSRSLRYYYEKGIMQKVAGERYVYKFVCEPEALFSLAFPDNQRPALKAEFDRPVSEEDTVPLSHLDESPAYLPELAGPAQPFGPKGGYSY
UniProt P33176: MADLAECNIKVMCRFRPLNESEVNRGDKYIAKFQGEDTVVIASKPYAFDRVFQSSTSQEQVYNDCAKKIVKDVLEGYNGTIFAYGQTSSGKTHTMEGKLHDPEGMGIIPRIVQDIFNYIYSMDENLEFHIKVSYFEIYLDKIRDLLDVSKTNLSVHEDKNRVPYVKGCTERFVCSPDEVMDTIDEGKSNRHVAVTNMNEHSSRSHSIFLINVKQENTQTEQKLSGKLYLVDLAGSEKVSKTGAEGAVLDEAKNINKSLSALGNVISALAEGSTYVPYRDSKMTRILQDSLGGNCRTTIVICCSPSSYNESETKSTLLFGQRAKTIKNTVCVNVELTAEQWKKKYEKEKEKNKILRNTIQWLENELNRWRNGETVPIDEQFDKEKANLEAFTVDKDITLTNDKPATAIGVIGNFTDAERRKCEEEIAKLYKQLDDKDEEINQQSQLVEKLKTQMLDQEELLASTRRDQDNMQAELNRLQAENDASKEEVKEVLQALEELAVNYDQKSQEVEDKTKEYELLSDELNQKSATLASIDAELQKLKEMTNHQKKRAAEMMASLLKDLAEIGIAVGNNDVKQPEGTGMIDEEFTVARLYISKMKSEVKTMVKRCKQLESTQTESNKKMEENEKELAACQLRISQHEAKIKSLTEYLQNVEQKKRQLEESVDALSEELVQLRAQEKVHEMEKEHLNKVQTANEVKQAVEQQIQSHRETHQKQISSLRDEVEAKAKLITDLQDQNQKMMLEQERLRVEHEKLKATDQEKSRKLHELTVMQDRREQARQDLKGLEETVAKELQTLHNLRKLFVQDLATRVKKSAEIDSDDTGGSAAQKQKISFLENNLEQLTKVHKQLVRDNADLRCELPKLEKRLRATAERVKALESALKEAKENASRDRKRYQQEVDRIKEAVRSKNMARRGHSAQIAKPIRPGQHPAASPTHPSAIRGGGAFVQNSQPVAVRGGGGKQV
UniProt P38646: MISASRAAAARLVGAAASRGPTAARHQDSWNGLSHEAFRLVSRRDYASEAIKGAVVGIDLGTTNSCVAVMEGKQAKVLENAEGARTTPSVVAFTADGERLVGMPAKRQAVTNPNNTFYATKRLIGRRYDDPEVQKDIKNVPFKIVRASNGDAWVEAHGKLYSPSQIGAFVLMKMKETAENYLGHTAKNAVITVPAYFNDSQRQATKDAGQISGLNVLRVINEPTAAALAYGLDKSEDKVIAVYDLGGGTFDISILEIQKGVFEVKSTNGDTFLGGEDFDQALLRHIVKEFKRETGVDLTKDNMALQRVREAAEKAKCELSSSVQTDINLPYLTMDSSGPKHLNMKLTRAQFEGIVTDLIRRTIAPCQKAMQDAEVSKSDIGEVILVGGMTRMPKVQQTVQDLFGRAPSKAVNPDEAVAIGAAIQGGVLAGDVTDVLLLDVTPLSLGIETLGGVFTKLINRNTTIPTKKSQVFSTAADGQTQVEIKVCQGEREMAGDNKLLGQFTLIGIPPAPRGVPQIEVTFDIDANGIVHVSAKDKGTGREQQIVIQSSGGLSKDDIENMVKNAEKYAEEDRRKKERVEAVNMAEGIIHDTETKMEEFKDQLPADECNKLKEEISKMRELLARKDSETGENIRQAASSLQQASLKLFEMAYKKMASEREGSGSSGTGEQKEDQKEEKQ
UniProt P35250, whole entry: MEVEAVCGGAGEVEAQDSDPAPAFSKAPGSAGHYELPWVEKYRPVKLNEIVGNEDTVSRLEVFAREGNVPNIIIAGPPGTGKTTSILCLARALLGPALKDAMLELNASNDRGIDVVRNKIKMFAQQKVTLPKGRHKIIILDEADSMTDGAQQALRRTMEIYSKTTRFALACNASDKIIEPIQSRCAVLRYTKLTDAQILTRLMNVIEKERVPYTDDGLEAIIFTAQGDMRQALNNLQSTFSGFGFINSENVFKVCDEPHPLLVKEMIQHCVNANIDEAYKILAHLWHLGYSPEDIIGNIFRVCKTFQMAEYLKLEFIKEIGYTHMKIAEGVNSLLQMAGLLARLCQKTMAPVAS
UniProt P28908: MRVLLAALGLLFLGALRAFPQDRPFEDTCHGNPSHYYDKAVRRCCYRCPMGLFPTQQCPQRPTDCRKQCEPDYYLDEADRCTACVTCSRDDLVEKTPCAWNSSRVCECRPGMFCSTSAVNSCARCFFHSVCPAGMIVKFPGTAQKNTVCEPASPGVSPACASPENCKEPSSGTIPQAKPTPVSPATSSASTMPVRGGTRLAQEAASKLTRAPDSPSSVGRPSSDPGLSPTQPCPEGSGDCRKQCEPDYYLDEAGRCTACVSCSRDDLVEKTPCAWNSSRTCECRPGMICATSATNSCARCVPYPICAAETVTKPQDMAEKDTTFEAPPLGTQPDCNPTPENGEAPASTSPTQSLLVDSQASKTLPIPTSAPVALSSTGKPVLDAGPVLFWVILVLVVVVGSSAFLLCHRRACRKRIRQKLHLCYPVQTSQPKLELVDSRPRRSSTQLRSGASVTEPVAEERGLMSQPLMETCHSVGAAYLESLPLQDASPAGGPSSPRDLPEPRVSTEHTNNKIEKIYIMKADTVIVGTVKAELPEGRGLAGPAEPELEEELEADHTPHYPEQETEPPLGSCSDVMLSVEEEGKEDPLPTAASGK
UniProt P35520: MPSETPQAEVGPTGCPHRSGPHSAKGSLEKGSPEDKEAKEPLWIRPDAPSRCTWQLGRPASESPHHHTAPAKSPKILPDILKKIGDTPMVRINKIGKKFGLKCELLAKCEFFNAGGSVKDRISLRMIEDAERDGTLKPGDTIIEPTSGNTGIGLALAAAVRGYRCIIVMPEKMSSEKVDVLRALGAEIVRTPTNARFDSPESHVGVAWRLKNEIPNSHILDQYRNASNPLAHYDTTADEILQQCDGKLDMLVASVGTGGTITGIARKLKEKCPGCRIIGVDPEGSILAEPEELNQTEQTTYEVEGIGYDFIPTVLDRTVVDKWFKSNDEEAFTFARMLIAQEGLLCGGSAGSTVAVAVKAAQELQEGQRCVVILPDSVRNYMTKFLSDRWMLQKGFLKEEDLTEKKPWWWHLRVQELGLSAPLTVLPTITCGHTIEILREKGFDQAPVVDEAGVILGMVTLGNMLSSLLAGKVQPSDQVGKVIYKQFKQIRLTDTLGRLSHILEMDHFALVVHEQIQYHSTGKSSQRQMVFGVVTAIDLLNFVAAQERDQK
UniProt P32456: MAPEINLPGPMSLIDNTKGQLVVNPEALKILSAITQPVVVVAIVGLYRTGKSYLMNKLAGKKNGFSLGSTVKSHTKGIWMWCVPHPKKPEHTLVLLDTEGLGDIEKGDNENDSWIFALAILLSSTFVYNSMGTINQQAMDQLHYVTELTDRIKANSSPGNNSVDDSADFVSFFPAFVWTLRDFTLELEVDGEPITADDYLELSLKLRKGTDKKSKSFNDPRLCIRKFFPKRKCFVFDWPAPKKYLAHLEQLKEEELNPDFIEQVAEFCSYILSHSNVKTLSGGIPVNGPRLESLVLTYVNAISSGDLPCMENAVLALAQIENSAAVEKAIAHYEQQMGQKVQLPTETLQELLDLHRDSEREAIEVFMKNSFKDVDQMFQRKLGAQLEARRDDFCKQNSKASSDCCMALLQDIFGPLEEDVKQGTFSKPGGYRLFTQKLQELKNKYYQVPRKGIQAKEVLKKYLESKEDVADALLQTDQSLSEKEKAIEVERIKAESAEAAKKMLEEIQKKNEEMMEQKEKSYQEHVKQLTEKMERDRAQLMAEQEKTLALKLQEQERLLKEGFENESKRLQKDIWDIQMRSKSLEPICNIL
UniProt P30305: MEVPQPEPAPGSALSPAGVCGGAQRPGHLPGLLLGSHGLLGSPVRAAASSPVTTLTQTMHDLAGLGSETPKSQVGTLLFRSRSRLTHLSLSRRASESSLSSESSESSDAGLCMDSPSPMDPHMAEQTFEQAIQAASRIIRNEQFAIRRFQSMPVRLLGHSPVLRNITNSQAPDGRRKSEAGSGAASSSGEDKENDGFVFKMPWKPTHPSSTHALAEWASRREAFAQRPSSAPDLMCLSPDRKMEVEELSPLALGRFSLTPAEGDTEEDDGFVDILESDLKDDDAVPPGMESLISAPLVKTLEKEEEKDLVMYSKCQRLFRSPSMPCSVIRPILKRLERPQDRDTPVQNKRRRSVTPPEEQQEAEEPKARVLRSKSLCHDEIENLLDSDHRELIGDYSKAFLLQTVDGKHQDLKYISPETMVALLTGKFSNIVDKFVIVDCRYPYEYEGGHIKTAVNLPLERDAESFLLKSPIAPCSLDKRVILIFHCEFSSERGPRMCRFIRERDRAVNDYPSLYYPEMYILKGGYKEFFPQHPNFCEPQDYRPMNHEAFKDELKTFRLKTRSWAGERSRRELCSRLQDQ
UniProt P32321: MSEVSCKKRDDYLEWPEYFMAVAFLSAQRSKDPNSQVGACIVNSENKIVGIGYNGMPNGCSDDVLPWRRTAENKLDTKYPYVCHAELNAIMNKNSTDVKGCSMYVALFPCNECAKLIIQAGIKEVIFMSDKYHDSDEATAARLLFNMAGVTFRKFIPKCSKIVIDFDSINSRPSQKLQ

compound: Cc1nc(Nc2ncc(C(=O)Nc3c(C)cccc3Cl)s2)cc(N2CCN(CCO)CC2)n1 [dasatinib]; assay: log2 fold change of tryptic peptide abundance, ligand vs vehicle (limited proteolysis) (log2 ratio); higher = more trypsin-susceptible (destabilized); conditions: ligand concentration: 5 uM; sample: K562 cleared lysate

Target	log2 fold change
PTPN9 (peptide sequence: SGHTQTDYINASFMDGYKQK, peptide start residue: 350) (UniProt P43378)	-0.553
RBM34 (peptide sequence: NGAQIADGFR, peptide start residue: 263) (UniProt P42696)	0.135
MAGEA6 (peptide sequence: ISYPLLHEWALR, peptide start residue: 299) (UniProt P43360)	-0.112
RXRB (peptide sequence: DKDGDGEGAGGAPEEMPVDR, peptide start residue: 284) (UniProt P28702)	0.511
MTHFR (peptide sequence: DVIEPIKDNDAAIR, peptide start residue: 282) (UniProt P42898)	-0.139
ETV5 (peptide sequence: VKQEPTMYR, peptide start residue: 349) (UniProt P41161)	-0.104
ETV4 (peptide sequence: NRPAMNYDKLSR, peptide start residue: 380) (UniProt P43268)	0.177
TXLNA (peptide sequence: AREEEEK, peptide start residue: 263) (UniProt P40222)	0.214
TGFBR2 (peptide sequence: GIAHLHSDHTPCGRPK, peptide start residue: 357) (UniProt P37173)	0.309
RANBP1 (peptide sequence: TLEEDEEELFKMRAK, peptide start residue: 40) (UniProt P43487)	0.978
KIF5B (peptide sequence: CKQLESTQTESNKK, peptide start residue: 608) (UniProt P33176)	0.835
UniProt P41229 (peptide sequence: VAGLQMTLTELR, peptide start residue: 843)	0.0925
UniProt P36542 (peptide sequence: HLLIGVSSDR, peptide start residue: 91)	-0.251
TAGLN2 (peptide sequence: TLMNLGGLAVAR, peptide start residue: 128) (UniProt P37802)	-0.14
PPP2R1A (peptide sequence: VLAMSGDPNYLHR, peptide start residue: 486) (UniProt P30153)	-0.155
HSPA9 (peptide sequence: YAEEDRR, peptide start residue: 568) (UniProt P38646)	0.226
RFC4 (peptide sequence: GVAASAGSSGENKK, peptide start residue: 21) (UniProt P35249)	0.111
MAGEA4 (peptide sequence: ALAETSYVK, peptide start residue: 270) (UniProt P43358)	-0.129
RFC2 (peptide sequence: VCDEPHPLLVK, peptide start residue: 254) (UniProt P35250)	0.518
TNFRSF8 (peptide sequence: SGASVTEPVAEER, peptide start residue: 449) (UniProt P28908)	0.163
EPS15 (peptide sequence: LDSPDPFK, peptide start residue: 794) (UniProt P42566)	0.273
CBS (peptide sequence: CVVILPDSVR, peptide start residue: 370) (UniProt P35520)	0.16
LTBR (peptide sequence: AWHLAETEHCGATPSNR, peptide start residue: 409) (UniProt P36941)	0.21
DNAJA1 (peptide sequence: VKETTYYDVLGVKPNATQEELK, peptide start residue: 2) (UniProt P31689)	0.356
MATR3 (peptide sequence: DGSASAAAKK, peptide start residue: 703) (UniProt P43243)	-0.255
GBP2 (peptide sequence: DIWDIQMR, peptide start residue: 573) (UniProt P32456)	0.0368
CDC25B (peptide sequence: VILIFHCEFSSER, peptide start residue: 481) (UniProt P30305)	0.645
DCTD (peptide sequence: IVIDFDSINSRPSQK, peptide start residue: 162) (UniProt P32321)	0.141

Rewritten comma-delimited: part of the list above
Target,log2 fold change
"RXRB (peptide sequence: DKDGDGEGAGGAPEEMPVDR, peptide start residue: 284) (UniProt P28702)",0.511
"UniProt P36542 (peptide sequence: HLLIGVSSDR, peptide start residue: 91)",-0.251
"HSPA9 (peptide sequence: YAEEDRR, peptide start residue: 568) (UniProt P38646)",0.226
"TNFRSF8 (peptide sequence: SGASVTEPVAEER, peptide start residue: 449) (UniProt P28908)",0.163
"DNAJA1 (peptide sequence: VKETTYYDVLGVKPNATQEELK, peptide start residue: 2) (UniProt P31689)",0.356
